PubChem BioAssay AID1259425 – University of Nebraska Medical Center | 2018

Screen: 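Find knockdowns that reproduce the gene expression pattern seen when KSR1 is lost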 (primary screen)
Cell system: HCT116 human colon cancer cells
Reagents: siRNA pool against human genes, 50 nM siRNA
Read-out: 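mRNA of six signature genes measured together by branched-DNA assay after 50 nM siRNA pool, blank removed, divided by geometric mean of two housekeeping genes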
Direction: BNIP3L mRNA: higher = more BNIP3L transcript after knockdown; NDRG1 mRNA: higher = more NDRG1 transcript after knockdown
The whole screen tested about 14,000 reagents; this is an unselected part. Further read-outs or replicates are left out here. Not stated in the record: the time to read-out.

For SHOX2 (SHOX homeobox 2) [SID363994179] the deposit lists BNIP3L mRNA, set 1 = 0.0553; NDRG1 mRNA, set 1 = 0.189.
Silencing of CDKL1 (cyclin dependent kinase like 1) [SID363995198] came out at: BNIP3L mRNA, set 1 = 0.0867; NDRG1 mRNA, set 1 = 0.181.
For PIP4K2A (phosphatidylinositol-5-phosphate 4-kinase type 2 alpha) [SID363995967] the deposit lists BNIP3L mRNA, set 1 = 0.199; NDRG1 mRNA, set 1 = 0.0978.
Depletion of SSR3 (signal sequence receptor subunit 3) [SID363997823] resulted in: BNIP3L mRNA, set 1 = 0.0919; NDRG1 mRNA, set 1 = 0.0954.
After knock-down of CLCF1 (cardiotrophin like cytokine factor 1) [SID363998370], the screen gave BNIP3L mRNA, set 1 = 0.116; NDRG1 mRNA, set 1 = 0.282.
ARHGEF40 (Rho guanine nucleotide exchange factor 40) [SID364005414] gave BNIP3L mRNA, set 1 = 0.177; NDRG1 mRNA, set 1 = 0.763.
NCOA5 (nuclear receptor coactivator 5) [SID364001920] showed BNIP3L mRNA, set 1 = 0.121; NDRG1 mRNA, set 1 = 0.136.
Depletion of GLUL (glutamate-ammonia ligase) [SID363993272] gave: BNIP3L mRNA, set 1 = 0.137; NDRG1 mRNA, set 1 = 0.129.
For MRTFB (myocardin related transcription factor B) [SID363998574], the entry reads BNIP3L mRNA, set 1 = 0.0888; NDRG1 mRNA, set 1 = 0.0881.
Depletion of DOLPP1 (dolichyldiphosphatase 1) [SID364001697] gave: BNIP3L mRNA, set 1 = 0.142; NDRG1 mRNA, set 1 = 0.499.
For FARSB (phenylalanyl-tRNA synthetase subunit beta) [SID363996577] the deposit lists BNIP3L mRNA, set 1 = 0.208; NDRG1 mRNA, set 1 = 0.138.
TBC1D8B (TBC1 domain family member 8B) [SID364000498] showed BNIP3L mRNA, set 1 = 0.0499; NDRG1 mRNA, set 1 = 0.546.
Depletion of POGLUT2 (protein O-glucosyltransferase 2) [SID364002739] gave: BNIP3L mRNA, set 1 = 0.1; NDRG1 mRNA, set 1 = 0.0611.
For EVA1C (eva-1 homolog C) [SID364004467], the entry reads BNIP3L mRNA, set 1 = 0.0664; NDRG1 mRNA, set 1 = 0.186.
With knock-down of NSRP1 (nuclear speckle splicing regulatory protein 1) [SID364003798] the results were BNIP3L mRNA, set 1 = 0.0828; NDRG1 mRNA, set 1 = 0.141.
ABCC6 (ATP binding cassette subfamily C member 6) [SID363992462] gave BNIP3L mRNA, set 1 = 0.0705; NDRG1 mRNA, set 1 = 0.231.
After knock-down of SETD2 (SET domain containing 2, histone lysine methyltransferase) [SID363998617] the results were BNIP3L mRNA, set 1 = 0.124; NDRG1 mRNA, set 1 = 0.0648.
PLA2G6 (phospholipase A2 group VI) [SID363994642] scored BNIP3L mRNA, set 1 = 0.198; NDRG1 mRNA, set 1 = 0.145.
HERC6 [SID364000637] showed BNIP3L mRNA, set 1 = 0.0732; NDRG1 mRNA, set 1 = 0.299.
For POLR2M (RNA polymerase II subunit M) [SID363999555], the entry reads BNIP3L mRNA, set 1 = 0.126; NDRG1 mRNA, set 1 = 0.612.
IFT52 (intraflagellar transport 52) [SID363999788] scored BNIP3L mRNA, set 1 = 0.0855; NDRG1 mRNA, set 1 = 0.567.
With knock-down of SEC24D (SEC24 homolog D, COPII component) [SID363999129], the record shows BNIP3L mRNA, set 1 = 0.0862; NDRG1 mRNA, set 1 = 0.192.
DRD1 (dopamine receptor D1) [SID363992084] gave BNIP3L mRNA, set 1 = 0.182; NDRG1 mRNA, set 1 = 0.16.
Against IGF1R (insulin like growth factor 1 receptor) [SID363992162], the values are BNIP3L mRNA, set 1 = 0.121; NDRG1 mRNA, set 1 = 0.393.
For LEFTY2 (left-right determination factor 2) [SID363994362], the values are BNIP3L mRNA, set 1 = 0.0793; NDRG1 mRNA, set 1 = 0.157.
Silencing of BYSL (bystin like) [SID363995063] came out at: BNIP3L mRNA, set 1 = 0.151; NDRG1 mRNA, set 1 = 0.166.
After knock-down of P2RY1 (purinergic receptor P2Y1) [SID363993732], the record shows BNIP3L mRNA, set 1 = 0.115; NDRG1 mRNA, set 1 = 0.26.
Silencing of WDR76 (WD repeat domain 76) [SID364003152] gave: BNIP3L mRNA, set 1 = 0.221; NDRG1 mRNA, set 1 = 0.329.
With knock-down of OPN1MW (opsin 1, medium wave sensitive) [SID363991836], the record shows BNIP3L mRNA, set 1 = 0.15; NDRG1 mRNA, set 1 = 0.586.
RNF150 (ring finger protein 150) [SID364005372] gave BNIP3L mRNA, set 1 = 0.1; NDRG1 mRNA, set 1 = 0.126.
With knock-down of NUF2 (NUF2 component of NDC80 kinetochore complex) [SID364003610], the record shows BNIP3L mRNA, set 1 = 0.155; NDRG1 mRNA, set 1 = 0.373.
TMEM156 (transmembrane protein 156) [SID364003176] showed BNIP3L mRNA, set 1 = 0.179; NDRG1 mRNA, set 1 = 0.251.
For RRS1 (regulator of ribosome synthesis 1) [SID363999341], the values are BNIP3L mRNA, set 1 = 0.212; NDRG1 mRNA, set 1 = 0.215.
After knock-down of KIAA1671 [SID364005452], the screen gave BNIP3L mRNA, set 1 = 0.0929; NDRG1 mRNA, set 1 = 0.255.
Depletion of TAS2R60 (taste 2 receptor member 60) [SID364004897] resulted in: BNIP3L mRNA, set 1 = 0.209; NDRG1 mRNA, set 1 = 0.581.
Silencing of PSKH2 (protein serine kinase H2) [SID364004331] gave: BNIP3L mRNA, set 1 = 0.111; NDRG1 mRNA, set 1 = 0.151.

A portion from the list above, as a working copy:
POGLUT2 (protein O-glucosyltransferase 2) [SID364002739] | BNIP3L mRNA, set 1: 0.1; NDRG1 mRNA, set 1: 0.0611
EVA1C (eva-1 homolog C) [SID364004467] | BNIP3L mRNA, set 1: 0.0664; NDRG1 mRNA, set 1: 0.186
NSRP1 (nuclear speckle splicing regulatory protein 1) [SID364003798] | BNIP3L mRNA, set 1: 0.0828; NDRG1 mRNA, set 1: 0.141
ABCC6 (ATP binding cassette subfamily C member 6) [SID363992462] | BNIP3L mRNA, set 1: 0.0705; NDRG1 mRNA, set 1: 0.231
